From the supplement of paper PMC10849652
The list shows a part of the results.

Sequences of proteins named here, by UniProt entry; tags and fusion partners are left off. A change or cut given only in a name is not applied to a line headed by its entry.
UniProt O43670: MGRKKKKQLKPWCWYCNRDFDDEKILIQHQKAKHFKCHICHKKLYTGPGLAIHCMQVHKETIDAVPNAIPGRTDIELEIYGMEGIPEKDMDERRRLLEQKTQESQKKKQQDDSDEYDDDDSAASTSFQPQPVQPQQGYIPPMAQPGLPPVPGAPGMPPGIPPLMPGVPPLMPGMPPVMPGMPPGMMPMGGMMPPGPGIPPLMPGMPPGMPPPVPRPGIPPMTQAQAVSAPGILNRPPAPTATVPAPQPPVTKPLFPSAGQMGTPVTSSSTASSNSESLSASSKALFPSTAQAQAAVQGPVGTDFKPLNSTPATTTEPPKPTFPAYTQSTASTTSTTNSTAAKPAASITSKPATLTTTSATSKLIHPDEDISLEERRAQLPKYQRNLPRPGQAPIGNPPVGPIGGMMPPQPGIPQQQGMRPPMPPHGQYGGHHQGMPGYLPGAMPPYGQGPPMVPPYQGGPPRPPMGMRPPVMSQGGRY
UniProt Q9NRM2: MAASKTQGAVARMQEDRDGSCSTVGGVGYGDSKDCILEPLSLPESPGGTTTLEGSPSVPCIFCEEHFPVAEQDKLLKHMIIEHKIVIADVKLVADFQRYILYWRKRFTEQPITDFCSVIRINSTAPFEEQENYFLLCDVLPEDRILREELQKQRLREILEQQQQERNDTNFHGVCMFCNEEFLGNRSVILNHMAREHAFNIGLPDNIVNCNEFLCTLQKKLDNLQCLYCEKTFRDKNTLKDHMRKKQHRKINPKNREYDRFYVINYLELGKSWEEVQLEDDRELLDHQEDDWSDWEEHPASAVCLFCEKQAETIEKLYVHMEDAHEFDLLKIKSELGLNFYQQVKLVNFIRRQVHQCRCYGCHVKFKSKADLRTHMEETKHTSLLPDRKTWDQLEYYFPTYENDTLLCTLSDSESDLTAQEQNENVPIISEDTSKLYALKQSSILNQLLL
UniProt Q96IR2: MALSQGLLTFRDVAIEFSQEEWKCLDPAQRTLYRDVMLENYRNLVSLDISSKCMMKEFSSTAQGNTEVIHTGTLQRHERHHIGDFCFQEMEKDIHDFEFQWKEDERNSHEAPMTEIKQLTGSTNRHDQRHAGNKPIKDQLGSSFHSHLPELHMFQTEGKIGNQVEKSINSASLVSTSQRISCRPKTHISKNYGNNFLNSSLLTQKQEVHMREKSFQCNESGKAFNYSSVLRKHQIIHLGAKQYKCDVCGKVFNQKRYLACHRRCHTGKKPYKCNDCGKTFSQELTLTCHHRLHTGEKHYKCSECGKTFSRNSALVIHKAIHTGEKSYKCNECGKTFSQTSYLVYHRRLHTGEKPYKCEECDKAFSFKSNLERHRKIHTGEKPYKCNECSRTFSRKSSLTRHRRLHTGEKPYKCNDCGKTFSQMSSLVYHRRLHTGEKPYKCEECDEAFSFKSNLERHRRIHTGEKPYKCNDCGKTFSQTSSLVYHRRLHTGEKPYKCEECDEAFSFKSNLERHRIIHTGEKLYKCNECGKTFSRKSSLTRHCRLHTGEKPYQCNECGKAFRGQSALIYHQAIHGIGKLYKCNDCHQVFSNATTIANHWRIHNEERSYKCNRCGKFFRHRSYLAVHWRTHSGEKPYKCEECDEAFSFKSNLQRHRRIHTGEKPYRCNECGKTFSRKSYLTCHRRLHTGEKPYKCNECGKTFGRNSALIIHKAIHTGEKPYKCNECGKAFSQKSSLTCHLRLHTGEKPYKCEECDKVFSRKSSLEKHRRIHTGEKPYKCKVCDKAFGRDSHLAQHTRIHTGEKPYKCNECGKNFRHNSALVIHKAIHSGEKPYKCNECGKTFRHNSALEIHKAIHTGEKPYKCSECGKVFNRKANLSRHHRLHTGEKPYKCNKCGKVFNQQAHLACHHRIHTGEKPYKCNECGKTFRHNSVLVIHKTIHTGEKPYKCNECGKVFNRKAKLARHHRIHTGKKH
UniProt O60232: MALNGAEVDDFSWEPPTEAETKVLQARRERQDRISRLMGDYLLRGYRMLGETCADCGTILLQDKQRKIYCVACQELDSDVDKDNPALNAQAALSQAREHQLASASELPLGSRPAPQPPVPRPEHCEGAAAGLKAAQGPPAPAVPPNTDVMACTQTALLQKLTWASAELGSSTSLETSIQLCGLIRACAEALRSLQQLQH
UniProt Q03936: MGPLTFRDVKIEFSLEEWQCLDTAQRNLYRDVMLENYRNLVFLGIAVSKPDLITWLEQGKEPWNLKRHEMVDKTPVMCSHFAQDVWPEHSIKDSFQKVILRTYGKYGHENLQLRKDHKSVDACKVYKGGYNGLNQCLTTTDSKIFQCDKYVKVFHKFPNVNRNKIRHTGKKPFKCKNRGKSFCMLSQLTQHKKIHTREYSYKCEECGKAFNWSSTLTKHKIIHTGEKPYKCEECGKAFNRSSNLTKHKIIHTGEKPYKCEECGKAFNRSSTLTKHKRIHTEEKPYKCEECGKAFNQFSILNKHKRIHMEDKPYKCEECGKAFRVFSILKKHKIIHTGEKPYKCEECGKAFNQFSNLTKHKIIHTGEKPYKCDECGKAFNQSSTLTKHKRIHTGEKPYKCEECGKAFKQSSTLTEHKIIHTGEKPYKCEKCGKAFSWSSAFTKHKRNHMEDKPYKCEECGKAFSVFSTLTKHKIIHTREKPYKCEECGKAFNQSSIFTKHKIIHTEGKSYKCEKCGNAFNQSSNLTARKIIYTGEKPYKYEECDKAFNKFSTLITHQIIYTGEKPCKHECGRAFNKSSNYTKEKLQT
UniProt Q9Y3S2: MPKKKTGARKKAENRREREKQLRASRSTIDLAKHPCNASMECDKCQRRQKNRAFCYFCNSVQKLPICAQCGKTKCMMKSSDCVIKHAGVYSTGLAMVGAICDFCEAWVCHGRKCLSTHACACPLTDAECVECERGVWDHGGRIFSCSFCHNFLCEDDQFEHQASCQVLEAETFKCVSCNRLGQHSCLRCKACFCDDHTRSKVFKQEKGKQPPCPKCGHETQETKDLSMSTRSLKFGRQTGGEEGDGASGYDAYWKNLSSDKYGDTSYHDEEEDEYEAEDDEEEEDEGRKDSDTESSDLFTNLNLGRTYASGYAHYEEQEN
UniProt P17026: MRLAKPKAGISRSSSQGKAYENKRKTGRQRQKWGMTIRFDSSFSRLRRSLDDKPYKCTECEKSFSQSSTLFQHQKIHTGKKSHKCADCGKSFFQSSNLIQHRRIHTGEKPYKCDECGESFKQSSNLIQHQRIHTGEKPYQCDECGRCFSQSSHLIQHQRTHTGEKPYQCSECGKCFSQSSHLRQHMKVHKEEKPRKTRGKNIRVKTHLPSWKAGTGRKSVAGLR
UniProt P52747: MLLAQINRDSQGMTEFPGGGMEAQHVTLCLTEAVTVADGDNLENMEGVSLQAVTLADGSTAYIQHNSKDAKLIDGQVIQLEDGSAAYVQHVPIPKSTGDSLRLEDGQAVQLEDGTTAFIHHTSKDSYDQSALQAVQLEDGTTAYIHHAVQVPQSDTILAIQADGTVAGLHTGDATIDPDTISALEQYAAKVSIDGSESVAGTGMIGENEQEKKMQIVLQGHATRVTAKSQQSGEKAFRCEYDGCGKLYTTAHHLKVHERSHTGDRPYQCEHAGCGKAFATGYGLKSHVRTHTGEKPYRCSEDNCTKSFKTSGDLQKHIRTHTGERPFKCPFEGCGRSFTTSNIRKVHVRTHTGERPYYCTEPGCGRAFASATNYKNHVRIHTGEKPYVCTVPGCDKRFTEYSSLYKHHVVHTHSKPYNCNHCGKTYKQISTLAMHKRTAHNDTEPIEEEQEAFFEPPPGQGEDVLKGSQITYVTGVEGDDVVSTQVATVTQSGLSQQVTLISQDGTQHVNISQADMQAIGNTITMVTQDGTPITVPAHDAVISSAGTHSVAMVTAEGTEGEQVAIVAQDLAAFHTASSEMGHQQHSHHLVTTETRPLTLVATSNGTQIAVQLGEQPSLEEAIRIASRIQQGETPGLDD
UniProt Q9UBW7: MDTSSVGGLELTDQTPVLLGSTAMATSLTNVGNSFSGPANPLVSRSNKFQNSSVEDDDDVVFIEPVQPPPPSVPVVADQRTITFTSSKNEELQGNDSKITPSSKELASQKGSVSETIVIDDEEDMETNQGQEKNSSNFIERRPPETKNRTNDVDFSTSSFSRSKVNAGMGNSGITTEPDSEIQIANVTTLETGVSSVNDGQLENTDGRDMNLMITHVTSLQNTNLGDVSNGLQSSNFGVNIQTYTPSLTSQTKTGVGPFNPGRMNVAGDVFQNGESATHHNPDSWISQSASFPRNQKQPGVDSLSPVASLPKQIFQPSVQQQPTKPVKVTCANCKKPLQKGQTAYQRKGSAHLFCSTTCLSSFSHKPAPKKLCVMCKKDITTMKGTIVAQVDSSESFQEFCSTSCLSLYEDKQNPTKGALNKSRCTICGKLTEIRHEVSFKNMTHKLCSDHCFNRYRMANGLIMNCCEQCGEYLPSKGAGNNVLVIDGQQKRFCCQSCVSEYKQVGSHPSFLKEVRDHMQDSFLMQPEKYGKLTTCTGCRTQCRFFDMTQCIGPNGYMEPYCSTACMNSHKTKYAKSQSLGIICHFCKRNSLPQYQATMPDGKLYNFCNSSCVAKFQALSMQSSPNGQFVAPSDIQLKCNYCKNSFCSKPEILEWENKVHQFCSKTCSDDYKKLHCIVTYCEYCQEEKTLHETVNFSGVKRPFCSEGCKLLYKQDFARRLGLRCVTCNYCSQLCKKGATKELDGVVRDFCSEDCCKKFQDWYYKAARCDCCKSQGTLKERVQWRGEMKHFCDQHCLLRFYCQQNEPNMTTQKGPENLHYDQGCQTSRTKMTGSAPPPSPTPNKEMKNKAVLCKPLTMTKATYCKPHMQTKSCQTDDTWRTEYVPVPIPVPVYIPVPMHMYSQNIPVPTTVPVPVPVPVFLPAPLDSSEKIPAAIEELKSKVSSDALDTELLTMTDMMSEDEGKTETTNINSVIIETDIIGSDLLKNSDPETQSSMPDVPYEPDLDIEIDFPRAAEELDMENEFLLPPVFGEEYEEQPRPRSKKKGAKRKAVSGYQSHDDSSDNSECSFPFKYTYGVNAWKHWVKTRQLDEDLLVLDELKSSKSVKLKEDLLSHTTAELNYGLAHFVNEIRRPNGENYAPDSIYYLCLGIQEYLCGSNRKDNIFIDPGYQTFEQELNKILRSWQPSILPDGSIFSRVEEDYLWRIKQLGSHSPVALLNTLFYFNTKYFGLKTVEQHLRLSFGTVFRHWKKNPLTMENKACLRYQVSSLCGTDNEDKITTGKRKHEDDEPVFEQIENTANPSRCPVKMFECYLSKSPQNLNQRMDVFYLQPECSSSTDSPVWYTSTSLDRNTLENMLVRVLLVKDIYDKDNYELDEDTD
UniProt Q96ME7: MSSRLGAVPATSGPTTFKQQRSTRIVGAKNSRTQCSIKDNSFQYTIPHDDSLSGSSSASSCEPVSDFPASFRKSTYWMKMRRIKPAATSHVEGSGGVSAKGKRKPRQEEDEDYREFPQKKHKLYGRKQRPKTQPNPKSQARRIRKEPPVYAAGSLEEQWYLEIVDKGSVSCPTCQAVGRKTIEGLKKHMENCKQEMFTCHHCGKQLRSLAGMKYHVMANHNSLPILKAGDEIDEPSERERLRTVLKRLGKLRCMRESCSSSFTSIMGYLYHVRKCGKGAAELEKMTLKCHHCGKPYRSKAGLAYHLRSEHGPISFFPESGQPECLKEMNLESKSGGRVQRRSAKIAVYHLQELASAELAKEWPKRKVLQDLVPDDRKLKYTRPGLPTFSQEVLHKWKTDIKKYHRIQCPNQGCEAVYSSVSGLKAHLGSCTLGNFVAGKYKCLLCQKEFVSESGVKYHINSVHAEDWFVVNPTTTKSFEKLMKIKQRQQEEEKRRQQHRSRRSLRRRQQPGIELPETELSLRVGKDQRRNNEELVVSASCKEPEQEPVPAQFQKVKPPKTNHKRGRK
UniProt Q96NC0: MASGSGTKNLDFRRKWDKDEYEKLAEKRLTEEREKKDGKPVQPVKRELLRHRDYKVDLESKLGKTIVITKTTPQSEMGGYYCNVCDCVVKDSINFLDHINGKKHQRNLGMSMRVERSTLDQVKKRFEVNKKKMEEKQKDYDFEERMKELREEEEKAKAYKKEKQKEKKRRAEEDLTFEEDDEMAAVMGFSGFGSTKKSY
UniProt Q6DD87: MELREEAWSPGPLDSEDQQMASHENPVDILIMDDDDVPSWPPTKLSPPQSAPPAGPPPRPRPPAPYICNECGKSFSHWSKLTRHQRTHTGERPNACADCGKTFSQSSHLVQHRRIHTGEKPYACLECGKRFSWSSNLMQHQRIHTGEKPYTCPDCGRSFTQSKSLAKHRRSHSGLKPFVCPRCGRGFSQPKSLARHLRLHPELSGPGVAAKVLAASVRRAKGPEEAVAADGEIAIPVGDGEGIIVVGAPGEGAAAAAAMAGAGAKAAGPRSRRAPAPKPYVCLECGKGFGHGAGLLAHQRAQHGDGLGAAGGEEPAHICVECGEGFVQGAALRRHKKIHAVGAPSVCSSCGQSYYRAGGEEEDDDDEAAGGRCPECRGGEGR

How the values were obtained:
Test in all cases: log2 fold change, soluble protein after heating vs DMSO (PISA); higher = thermal stabilisation; K562 lysate, 10 uM; active = over 0.2 and 3.5 SD of the protein, either way, in both replicates (recomputed)
nilotinib = compound: Cc1cn(-c2cc(NC(=O)c3ccc(C)c(Nc4nccc(-c5cccnc5)n4)c3)cc(C(F)(F)F)c2)cn1 [nilotinib]
How it was run: (§1)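 Thermal stability, expressed as log-two fold change relative to solvent controls, is given from duplicates. Crude K562 extract in PBS pH 7.4 with 1 mM MgCl2, at 1 mg/mL protein, was treated with 10 μM compound for 30 min and heated in aliquots for 3 min across 48°C-58°C. After pooling, adjustment to 0.5% NP-40 at 4°C and centrifugation at 21,000xg for 90 min, supernatant protein was measured by TMTpro 16plex LC-MS/MS with channel sums equalised.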

[1] = compound: Cc1nc(Nc2n[nH]c3c2CN(C(=O)N[C@H](CN(C)C)c2ccccc2)C3(C)C)c2sccc2n1
How it was run: as §1

dasatinib = compound: Cc1nc(Nc2ncc(C(=O)Nc3c(C)cccc3Cl)s2)cc(N2CCN(CCO)CC2)n1 [dasatinib]
How it was run: as §1

[2] = compound: Cc1ncc(-c2ccnc(Nc3ccc(S(C)(=O)=O)cc3)n2)n1C(C)C
How it was run: as §1

[3] = compound: Cn1cc(-c2ccc3c(c2)CCN3C(=O)Cc2cccc(C(F)(F)F)c2)c2c(N)ncnc21
How it was run: as §1

quisinostat = compound: Cn1cc(CNCC2CCN(c3ncc(C(=O)NO)cn3)CC2)c2ccccc21 [quisinostat]
How it was run: as §1

tipifarnib = compound: Cn1cncc1[C@@](N)(c1ccc(Cl)cc1)c1ccc2c(c1)c(-c1cccc(Cl)c1)cc(=O)n2C [tipifarnib]
How it was run: as §1

[4] = compound: NC(=O)Nc1cc(-c2cccc(F)c2)sc1C(=O)N[C@H]1CCCNC1
How it was run: as §1

[5] = compound: NC(=O)c1cnc(N[C@@H]2CCCC[C@@H]2N)nc1Nc1cccc(-n2nccn2)c1
How it was run: as §1

[6] = compound: NC1(c2ccc(-c3nc4ccn5c(=O)[nH]nc5c4cc3-c3ccccc3)cc2)CCC1
How it was run: as §1

[7] = compound: NCC(=O)Nc1ccc(-n2nc(C(F)(F)F)cc2-c2ccc3c(ccc4ccccc43)c2)cc1
How it was run: as §1

vorinostat = compound: O=C(CCCCCCC(=O)Nc1ccccc1)NO [vorinostat]
How it was run: as §1

silmitasertib = compound: O=C(O)c1ccc2c(c1)nc(Nc1cccc(Cl)c1)c1ccncc12 [silmitasertib]
How it was run: as §1

[8] = compound: O=C1NC(=O)C(c2cnc3ccccn23)=C1c1cn2c3c(cc(F)cc13)CN(C(=O)N1CCCCC1)CC2
How it was run: as §1

entospletinib = compound: c1cn2cc(-c3ccc4cn[nH]c4c3)nc(Nc3ccc(N4CCOCC4)cc3)c2n1 [entospletinib]
How it was run: as §1

Target | log2 fold change (nilotinib) | log2 fold change [1] | log2 fold change (dasatinib) | log2 fold change [2] | log2 fold change [3] | log2 fold change (quisinostat) | log2 fold change (tipifarnib) | log2 fold change [4] | log2 fold change [5] | log2 fold change [6] | log2 fold change [7] | log2 fold change (vorinostat) | log2 fold change (silmitasertib) | log2 fold change [8] | log2 fold change (entospletinib)
ZNF638 (UniProt Q14966) | inactive: 0.035 | inactive: -0.025 | inactive: -0.021 | inactive: 0.012 | inactive: 0.039 | inactive: -0.003 | inactive: -0.028 | inactive: -0.008 | inactive: -0.026 | inactive: 0.004 | inactive: 0.046 | inactive: -0.048 | inactive: -0.014 | inactive: -0.028 | inactive: -0.045
ZNF207 isoform 2 (UniProt O43670) | inactive: -0.07 | inactive: 0.072 | inactive: -0.038 | inactive: 0.012 | inactive: -0.139 | inactive: -0.27 | inactive: 0.022 | inactive: -0.066 | inactive: -0.072 | inactive: 0.028 | inactive: 0.061 | inactive: -0.039 | inactive: -0.084 | inactive: -0.006 | inactive: 0.034
ZNF277 (UniProt Q9NRM2) | inactive: -0.046 | inactive: -0.027 | inactive: -0.016 | inactive: -0.022 | inactive: 0.043 | inactive: -0.008 | inactive: 0.008 | inactive: 0.037 | inactive: -0.039 | inactive: -0.026 | inactive: -0.007 | inactive: -0.121 | inactive: 0.094 | inactive: -0.044 | inactive: 0.025
ZNF845 (UniProt Q96IR2) | inactive: 0 | inactive: 0.087 | inactive: -0.038 | inactive: -0.053 | inactive: 0.021 | inactive: -0.033 | inactive: -0.006 | inactive: 0.122 | inactive: 0.016 | inactive: 0.163 | inactive: -0.074 | inactive: -0.297 | active: 0.364 | inactive: -0.113 | –
ZMYM1 (UniProt Q5SVZ6) | inactive: 0.023 | inactive: -0.036 | inactive: 0.006 | inactive: -0.019 | inactive: 0.007 | inactive: -0.08 | inactive: -0.012 | inactive: 0.03 | inactive: 0.003 | inactive: 0.028 | inactive: -0.014 | inactive: -0.202 | inactive: 0.042 | inactive: -0.004 | inactive: 0.021
ZNRD2 (UniProt O60232) | inactive: 0.052 | inactive: -0.016 | inactive: 0.01 | inactive: 0.044 | inactive: -0.011 | inactive: 0.028 | inactive: -0.025 | inactive: -0.069 | inactive: -0.037 | inactive: -0.006 | inactive: -0.07 | inactive: -0.106 | inactive: -0.002 | inactive: -0.021 | inactive: -0.022
ZNF92 (UniProt Q03936) | inactive: 0.066 | inactive: -0.038 | inactive: 0.01 | inactive: -0.015 | inactive: 0 | inactive: 0.142 | inactive: 0.046 | inactive: -0.152 | inactive: 0.194 | inactive: -0.014 | inactive: 0.09 | inactive: -0.145 | inactive: 0.047 | inactive: 0.026 | –
ZNF207 isoform 4 (UniProt O43670) | inactive: 0.009 | inactive: 0.058 | inactive: 0.008 | inactive: 0.024 | inactive: 0.003 | inactive: -0.091 | inactive: -0.008 | inactive: 0.04 | inactive: -0.022 | inactive: -0.014 | inactive: 0.021 | inactive: 0.102 | inactive: -0.02 | inactive: 0 | inactive: -0.025
ZZEF1 (UniProt O43149) | inactive: -0.022 | inactive: 0 | inactive: -0.018 | inactive: 0.015 | inactive: -0.006 | inactive: -0.07 | inactive: 0.007 | inactive: 0.008 | inactive: 0.021 | inactive: -0.03 | inactive: 0.02 | active: -0.263 | inactive: 0.011 | inactive: 0.012 | inactive: 0.004
ZNF330 (UniProt Q9Y3S2) | inactive: 0.074 | inactive: 0.072 | inactive: -0.027 | inactive: 0.114 | inactive: -0.01 | inactive: 0.206 | inactive: 0.001 | inactive: -0.148 | inactive: -0.018 | inactive: -0.053 | inactive: 0.052 | inactive: 0.111 | inactive: 0.005 | inactive: 0.067 | inactive: 0.007
ZRANB2 (UniProt O95218) | inactive: 0.032 | inactive: 0.038 | inactive: -0.057 | inactive: 0.058 | inactive: -0.011 | inactive: 0.024 | inactive: 0.014 | inactive: -0.071 | inactive: -0.022 | inactive: -0.021 | inactive: 0.009 | inactive: 0.095 | inactive: 0.022 | inactive: 0 | inactive: -0.018
ZNF672 (UniProt Q499Z4) | inactive: -0.038 | inactive: 0.031 | inactive: 0.232 | inactive: 0.054 | inactive: 0.035 | inactive: 0.005 | inactive: -0.036 | inactive: 0.028 | inactive: 0.017 | inactive: 0.027 | inactive: -0.026 | inactive: 0.275 | inactive: 0.067 | inactive: -0.008 | inactive: -0.003
ZNF22 (UniProt P17026) | inactive: 0.068 | inactive: 0.014 | inactive: -0.063 | inactive: 0.067 | inactive: 0.085 | inactive: 0.048 | inactive: 0.069 | inactive: -0.015 | inactive: -0.011 | inactive: 0.006 | inactive: -0.133 | inactive: 0.192 | inactive: -0.087 | inactive: 0.058 | inactive: 0.018
ZNF143 (UniProt P52747) | inactive: -0.09 | inactive: 0.044 | inactive: 0.013 | inactive: -0.1 | inactive: 0.003 | inactive: 0.051 | inactive: -0.044 | inactive: -0.01 | inactive: -0.052 | inactive: -0.01 | inactive: 0 | inactive: 0.151 | inactive: -0.012 | inactive: -0.011 | inactive: 0.017
ZNRD2 (UniProt G3V1B8) | inactive: 0.115 | inactive: -0.064 | inactive: 0.087 | inactive: 0.275 | inactive: -0.019 | inactive: -0.191 | inactive: -0.076 | inactive: -0.034 | inactive: -0.011 | inactive: -0.028 | inactive: -0.064 | inactive: 0.005 | inactive: -0.024 | inactive: 0.135 | inactive: -0.019
ZMYM2 (UniProt Q9UBW7) | inactive: -0.04 | inactive: 0.001 | inactive: -0.023 | inactive: -0.007 | inactive: 0.035 | inactive: -0.082 | inactive: 0.08 | inactive: 0.056 | inactive: 0.099 | inactive: -0.033 | inactive: -0.125 | active: -0.609 | inactive: 0.034 | inactive: 0.019 | inactive: 0.069
ZNF512 (UniProt Q96ME7) | inactive: -0.039 | inactive: 0.053 | inactive: -0.008 | inactive: 0 | inactive: 0.037 | inactive: -0.034 | inactive: -0.048 | inactive: 0.053 | inactive: -0.026 | inactive: 0.006 | inactive: -0.129 | inactive: -0.052 | inactive: 0.027 | inactive: -0.039 | inactive: 0.032
ZMPSTE24 (UniProt O75844) | inactive: 0.03 | inactive: -0.024 | inactive: 0.029 | inactive: -0.014 | inactive: -0.035 | inactive: -0.116 | inactive: -0.026 | inactive: 0 | inactive: 0.004 | inactive: -0.013 | inactive: -0.002 | inactive: 0.114 | inactive: -0.034 | inactive: -0.02 | inactive: 0.006
ZMAT2 (UniProt Q96NC0) | inactive: -0.014 | inactive: 0.037 | inactive: 0.022 | inactive: 0.027 | inactive: 0.033 | inactive: -0.066 | inactive: -0.013 | inactive: -0.044 | inactive: 0.002 | inactive: -0.03 | inactive: 0.033 | inactive: 0.188 | inactive: -0.051 | inactive: -0.024 | inactive: 0.021
ZNF787 (UniProt Q6DD87) | inactive: -0.028 | inactive: 0.113 | inactive: -0.04 | inactive: 0.17 | inactive: -0.047 | inactive: 0.069 | inactive: 0.033 | inactive: 0.023 | inactive: -0.044 | inactive: 0.053 | inactive: 0.284 | inactive: 0.194 | inactive: 0.029 | inactive: 0.092 | inactive: 0.054
ZW10 (UniProt O43264) | inactive: -0.034 | inactive: -0.004 | inactive: -0.049 | inactive: 0.016 | inactive: -0.001 | inactive: -0.001 | inactive: 0.005 | inactive: 0.012 | inactive: 0.02 | inactive: -0.017 | inactive: 0.016 | inactive: -0.228 | inactive: 0.019 | inactive: 0 | inactive: 0.016

A stretch of the results above, as a working copy:
Target | log2 fold change (nilotinib) | log2 fold change [1] | log2 fold change (dasatinib) | log2 fold change [2] | log2 fold change [3] | log2 fold change (quisinostat) | log2 fold change (tipifarnib) | log2 fold change [4] | log2 fold change [5] | log2 fold change [6] | log2 fold change [7] | log2 fold change (vorinostat) | log2 fold change (silmitasertib) | log2 fold change [8] | log2 fold change (entospletinib)
ZNF207 isoform 2 (UniProt O43670) | inactive: -0.07 | inactive: 0.072 | inactive: -0.038 | inactive: 0.012 | inactive: -0.139 | inactive: -0.27 | inactive: 0.022 | inactive: -0.066 | inactive: -0.072 | inactive: 0.028 | inactive: 0.061 | inactive: -0.039 | inactive: -0.084 | inactive: -0.006 | inactive: 0.034
ZNF277 (UniProt Q9NRM2) | inactive: -0.046 | inactive: -0.027 | inactive: -0.016 | inactive: -0.022 | inactive: 0.043 | inactive: -0.008 | inactive: 0.008 | inactive: 0.037 | inactive: -0.039 | inactive: -0.026 | inactive: -0.007 | inactive: -0.121 | inactive: 0.094 | inactive: -0.044 | inactive: 0.025
